In article PMC5342555, “ATAD2 is an epigenetic reader of newly synthesized histone marks during DNA replication” (Oncotarget, 2016):
No constants are given. Whether binding was seen depends on the method and setting. Binding seen in cells or lysates may run through a third protein. These calls come from enrichment with a bait or labelling near it, and not all partners need be listed.

Chains of the proteins cited; added tags and fusions are not shown. Residues count along the entry.
UniProt P16401: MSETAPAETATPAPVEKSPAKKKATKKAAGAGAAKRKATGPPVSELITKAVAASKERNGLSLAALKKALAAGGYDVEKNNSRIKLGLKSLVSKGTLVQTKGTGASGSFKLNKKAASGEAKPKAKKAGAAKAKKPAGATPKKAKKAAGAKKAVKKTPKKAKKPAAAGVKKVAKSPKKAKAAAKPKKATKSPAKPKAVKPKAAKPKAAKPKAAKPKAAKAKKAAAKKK
UniProt P02545, residues 1-646: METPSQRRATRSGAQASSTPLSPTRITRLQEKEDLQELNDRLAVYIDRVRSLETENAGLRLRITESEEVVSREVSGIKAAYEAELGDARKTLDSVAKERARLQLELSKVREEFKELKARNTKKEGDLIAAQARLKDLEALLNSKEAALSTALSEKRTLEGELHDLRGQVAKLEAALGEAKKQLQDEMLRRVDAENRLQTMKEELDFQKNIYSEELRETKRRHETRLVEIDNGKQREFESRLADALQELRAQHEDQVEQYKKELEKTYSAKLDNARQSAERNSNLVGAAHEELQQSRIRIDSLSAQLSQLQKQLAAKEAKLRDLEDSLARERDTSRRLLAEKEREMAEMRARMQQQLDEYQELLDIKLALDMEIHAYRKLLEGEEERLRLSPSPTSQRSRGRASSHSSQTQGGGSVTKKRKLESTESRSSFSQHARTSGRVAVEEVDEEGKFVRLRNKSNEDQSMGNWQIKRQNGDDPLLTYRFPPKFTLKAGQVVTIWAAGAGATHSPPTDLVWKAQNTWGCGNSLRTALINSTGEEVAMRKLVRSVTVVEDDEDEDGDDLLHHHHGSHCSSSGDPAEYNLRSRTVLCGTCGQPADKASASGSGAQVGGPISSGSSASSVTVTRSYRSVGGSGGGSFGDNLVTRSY
UniProt P20700: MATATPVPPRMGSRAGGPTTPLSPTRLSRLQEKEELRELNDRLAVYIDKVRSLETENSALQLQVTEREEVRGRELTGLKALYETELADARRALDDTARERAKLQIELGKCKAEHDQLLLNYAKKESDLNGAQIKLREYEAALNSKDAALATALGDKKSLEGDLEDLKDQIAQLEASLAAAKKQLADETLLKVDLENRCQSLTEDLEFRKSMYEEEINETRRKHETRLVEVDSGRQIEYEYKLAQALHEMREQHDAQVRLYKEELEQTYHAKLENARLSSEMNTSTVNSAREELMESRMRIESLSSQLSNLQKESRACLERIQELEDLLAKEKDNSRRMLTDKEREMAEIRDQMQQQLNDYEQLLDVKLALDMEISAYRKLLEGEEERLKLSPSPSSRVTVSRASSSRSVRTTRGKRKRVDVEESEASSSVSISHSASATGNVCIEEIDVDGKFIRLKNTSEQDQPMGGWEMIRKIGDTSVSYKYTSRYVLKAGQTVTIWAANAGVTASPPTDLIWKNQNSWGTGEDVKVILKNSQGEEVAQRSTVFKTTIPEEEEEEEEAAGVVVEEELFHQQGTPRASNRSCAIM

These substances were tested against T1, ATAD2 (ATPase family AAA domain-containing protein 2), endogenous (human (endogenous in MCF7)) (UniProt Q6PL18) (assay: affinity purification with mass spectrometry; SILAC: immunoprecipitation with control antibody and antibody against ATAD2 on MCF7 cells grown in light (L) and heavy (H; K8, R10) medium; hits with log10 H/L higher than 1.2 in all triplicates).
T1 sequence: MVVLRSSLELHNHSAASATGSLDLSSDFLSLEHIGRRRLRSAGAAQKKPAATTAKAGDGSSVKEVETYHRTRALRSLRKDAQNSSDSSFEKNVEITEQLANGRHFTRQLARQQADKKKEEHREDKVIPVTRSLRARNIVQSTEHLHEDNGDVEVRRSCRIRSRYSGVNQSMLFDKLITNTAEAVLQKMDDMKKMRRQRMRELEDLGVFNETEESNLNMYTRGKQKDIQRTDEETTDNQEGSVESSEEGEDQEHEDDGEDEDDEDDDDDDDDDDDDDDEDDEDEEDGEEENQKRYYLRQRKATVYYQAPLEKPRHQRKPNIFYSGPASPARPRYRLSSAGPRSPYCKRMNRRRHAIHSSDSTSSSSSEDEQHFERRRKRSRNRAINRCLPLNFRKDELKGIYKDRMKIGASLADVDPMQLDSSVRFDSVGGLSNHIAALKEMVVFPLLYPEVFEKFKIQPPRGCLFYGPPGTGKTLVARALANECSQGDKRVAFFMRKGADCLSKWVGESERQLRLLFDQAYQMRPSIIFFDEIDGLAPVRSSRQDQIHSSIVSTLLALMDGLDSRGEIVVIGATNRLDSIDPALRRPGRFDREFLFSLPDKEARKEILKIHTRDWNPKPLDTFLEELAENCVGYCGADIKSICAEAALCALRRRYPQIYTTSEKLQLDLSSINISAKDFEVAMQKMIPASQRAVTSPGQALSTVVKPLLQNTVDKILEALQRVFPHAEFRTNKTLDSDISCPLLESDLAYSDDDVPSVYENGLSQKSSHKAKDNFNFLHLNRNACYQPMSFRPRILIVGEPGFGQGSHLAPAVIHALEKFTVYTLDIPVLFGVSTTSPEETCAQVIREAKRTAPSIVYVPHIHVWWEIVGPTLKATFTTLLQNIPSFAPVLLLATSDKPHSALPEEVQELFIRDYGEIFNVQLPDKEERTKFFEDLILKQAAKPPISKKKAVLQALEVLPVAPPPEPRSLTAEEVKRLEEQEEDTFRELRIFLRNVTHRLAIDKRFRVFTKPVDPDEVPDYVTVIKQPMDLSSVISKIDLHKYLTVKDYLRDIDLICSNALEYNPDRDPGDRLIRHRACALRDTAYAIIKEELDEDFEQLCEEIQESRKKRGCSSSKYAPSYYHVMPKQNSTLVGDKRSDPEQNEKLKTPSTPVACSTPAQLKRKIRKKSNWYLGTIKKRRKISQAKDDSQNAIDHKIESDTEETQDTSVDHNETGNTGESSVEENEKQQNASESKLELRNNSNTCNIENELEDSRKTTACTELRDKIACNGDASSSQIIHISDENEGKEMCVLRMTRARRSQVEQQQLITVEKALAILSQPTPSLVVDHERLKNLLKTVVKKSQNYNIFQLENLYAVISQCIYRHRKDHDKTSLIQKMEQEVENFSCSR

binding, binds:
histone H1.5, endogenous (from UniProt P16401 1-226)
prelamin A/C, endogenous (from UniProt P02545 1-646)
lamin B1, endogenous (from UniProt P20700 1-586)
